Reference: patent US12486302B2, “Somatostatin receptor antagonist compounds and methods of using the same” (CDRD VENTURES INC., priority 2016, dated 2025)
Some of these results come from one statement about several compounds together. Where a SMILES comes first, the peptide text is derived from it. Bridges are numbered along the chain shown (N, C = ends). [ ]: non-standard residue; d: D form. ξ: configuration not given here. dPhe(4-CONH2) = NC(=O)c1ccc(C[C@@H](N)C(=O)O)cc1; Phe(4-Cl) = N[C@@H](Cc1ccc(Cl)cc1)C(=O)O; ξPhe(4-Cl) = NC(Cc1ccc(Cl)cc1)C(=O)O; Lys(Me2) = CN(C)CCCC[C@H](N)C(=O)O; Tle = CC(C)(C)[C@H](N)C(=O)O; ξY = NC(Cc1ccc(O)cc1)C(=O)O; ξF = NC(Cc1ccccc1)C(=O)O

Chains of the proteins cited; added tags and fusions are not shown. Lines headed by an entry give the natural chain unless they say otherwise; changes in a name come on top.
UniProt P30874: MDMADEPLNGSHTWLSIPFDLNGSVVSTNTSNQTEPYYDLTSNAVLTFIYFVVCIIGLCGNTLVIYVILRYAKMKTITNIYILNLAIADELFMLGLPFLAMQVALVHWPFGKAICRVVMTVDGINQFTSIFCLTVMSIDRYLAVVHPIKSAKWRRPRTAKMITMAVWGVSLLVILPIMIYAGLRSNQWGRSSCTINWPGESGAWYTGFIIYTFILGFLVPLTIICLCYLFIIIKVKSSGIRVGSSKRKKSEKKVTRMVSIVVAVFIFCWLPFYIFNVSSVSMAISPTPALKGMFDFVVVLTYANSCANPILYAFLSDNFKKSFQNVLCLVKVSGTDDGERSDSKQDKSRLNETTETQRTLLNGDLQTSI

Biological target: somatostatin type 2 (SSTR2) receptors (Homo sapiens, UniProt P30874)
Experiment: PathHunter β-Arrestin assay, antagonist mode, SSTR2
Assay type: cell-based
Protocol: The PathHunter® β-Arrestin assay monitors the activation of a GPCR in a homogenous, non-imaging assay format using a technology developed by DiscoveRx called Enzyme Fragment Complementation (EFC) with β-galactosidase (β-Gal) as the functional reporter. […] EA is fused to β-Arrestin and […] is fused to the GPCR of interest. When the GPCR is activated and β-Arrestin is recruited to the receptor, ED and EA complementation occurs, restoring β-Gal activity which is measured using chemiluminescent PathHunter® Detection Reagents. For antagonist determination, cells were pre-incubated with the compounds followed by agonist challenge at the EC80 concentration. Data was normalized to the maximal and minimal response observed in the presence of EC80 ligand and vehicle. Compound activity was analyzed using CBIS data analysis suite ChemInnovation, CA). Percentage inhibition was calculated using the following formula: % Inhibition=100%×(1−(mean signal of test sample-mean signal of vehicle control)/(mean signal of EC80 control-mean signal of vehicle control)). Percentage inhibition was calculated at 10 concentrations in steps on a Log 3 scale ranging from […] to 5e-5 μM. The results were plotted for IC50 calculation.

C[C@@H](O)[C@@H]1NC(=O)[C@H](CCCCN(C)C)NC(=O)[C@@H](Cc2ccc(C(N)=O)cc2)NC(=O)[C@H](Cc2ccc(O)cc2)NC(=O)[C@H](NC(=O)[C@@H](N)Cc2ccc(Cl)cc2)CSSC[C@@H](C(=O)NC(Cc2ccc(O)cc2)C(N)=O)NC1=O (stereo partly drawn) [Compound 32, H-Cpa-cyclo[D-Cys-Tyr-D-Phe(4-carbamoyl)-Lys(N^ε-diMe)-Thr-Cys]-D-Tyr-NH2] (H-[Phe(4-Cl)][dC]Y[dPhe(4-CONH2)][Lys(Me2)]TC[ξY]-NH2; disulfide 2-7)
antagonistic activity with respect to SSTR2: exhibited antagonistic activity

CC(C)[C@@H]1NC(=O)[C@H](CCCCN)NC(=O)[C@@H](Cc2ccc(C(N)=O)cc2)NC(=O)[C@H](Cc2ccc(O)cc2)NC(=O)[C@H](NC(=O)[C@@H](N)Cc2ccc(Cl)cc2)CSSC[C@@H](C(=O)NC(Cc2ccc(O)cc2)C(N)=O)NC1=O (stereo partly drawn) [Compound 33, H-Cpa-cyclo[DCys- Tyr-D-4- (carbamoyl)Phe-Lys- Val-Cys]-DTyr-NH2] (H-[Phe(4-Cl)][dC]Y[dPhe(4-CONH2)]KVC[ξY]-NH2; disulfide 2-7)
antagonistic activity with respect to SSTR2: exhibited antagonistic activity

CC(C)(C)[C@@H]1NC(=O)[C@H](CCCCN)NC(=O)[C@@H](Cc2ccc(C(N)=O)cc2)NC(=O)[C@H](Cc2ccc(O)cc2)NC(=O)[C@H](NC(=O)[C@@H](N)Cc2ccc(Cl)cc2)CSSC[C@@H](C(=O)NC(Cc2ccc(O)cc2)C(N)=O)NC1=O (stereo partly drawn) [Compound 34, H-Cpa-cyclo[DCys- Tyr-D-4- (carbamoyl)Phe-Lys- tBu-Gly-Cys]-DTyr- NH2] (H-[Phe(4-Cl)][dC]Y[dPhe(4-CONH2)]K[Tle]C[ξY]-NH2; disulfide 2-7)
antagonistic activity with respect to SSTR2: exhibited antagonistic activity

C[C@@H](O)[C@@H]1NC(=O)[C@H](CCCCN)NC(=O)[C@@H](Cc2ccc(C(N)=O)cc2)NC(=O)[C@H](Cc2ccccc2)NC(=O)[C@H](NC(=O)[C@@H](N)Cc2ccc(Cl)cc2)CSSC[C@@H](C(=O)NC(Cc2ccc(O)cc2)C(N)=O)NC1=O (stereo partly drawn) [Compound 35, H-Cpa-cyclo[DCys- Phe-D-(4- carbamoyl)Phe-Lys- Thr-Cys]-DTyr-NH2] (H-[Phe(4-Cl)][dC]F[dPhe(4-CONH2)]KTC[ξY]-NH2; disulfide 2-7)
antagonistic activity with respect to SSTR2: exhibited antagonistic activity

C[C@@H](O)[C@@H]1NC(=O)[C@H](CCCCN)NC(=O)[C@@H](Cc2ccc(C(N)=O)cc2)NC(=O)[C@H](Cc2ccc(Cl)cc2)NC(=O)[C@H](NC(=O)[C@@H](N)Cc2ccc(Cl)cc2)CSSC[C@@H](C(=O)NC(Cc2ccc(O)cc2)C(N)=O)NC1=O (stereo partly drawn) [Compound 36, H-Cpa-cyclo[DCys- Cpa-D-(4- carbamoyl)Phe-Lys- Thr-Cys]-DTyr-NH2] (H-[Phe(4-Cl)][dC][Phe(4-Cl)][dPhe(4-CONH2)]KTC[ξY]-NH2; disulfide 2-7)
antagonistic activity with respect to SSTR2: exhibited antagonistic activity

NCCCC[C@@H]1NC(=O)[C@@H](Cc2ccc(C(N)=O)cc2)NC(=O)[C@H](Cc2ccc(O)cc2)NC(=O)[C@H](NC(=O)[C@@H](N)Cc2ccc(Cl)cc2)CSSC[C@@H](C(=O)NC(Cc2ccc(O)cc2)C(N)=O)NC(=O)[C@H](CO)NC1=O (stereo partly drawn) [Compound 37, H-Cpa-cyclo[DCys- Tyr-D-(4- carbamoyl)Phe-Lys- Ser-Cys]-DTyr-NH2] (H-[Phe(4-Cl)][dC]Y[dPhe(4-CONH2)]KSC[ξY]-NH2; disulfide 2-7)
antagonistic activity with respect to SSTR2: exhibited antagonistic activity

COc1ccc(C[C@@H]2NC(=O)[C@H](NC(=O)[C@@H](N)Cc3ccc(Cl)cc3)CSSC[C@@H](C(=O)NC(Cc3ccc(O)cc3)C(N)=O)NC(=O)[C@H]([C@@H](C)O)NC(=O)[C@H](CCCCN)NC(=O)[C@@H](Cc3ccc(C(N)=O)cc3)NC2=O)cc1 (stereo partly drawn) [Compound 38, H-Cpa-cyclo[DCys- 4-OMe-Phe-D-(4- carbamoyl)Phe-Lys- Thr-Cys]-DTyr-NH2] (H-[Phe(4-Cl)][dC]Y(Me)[dPhe(4-CONH2)]KTC[ξY]-NH2; disulfide 2-7)
antagonistic activity with respect to SSTR2: exhibited antagonistic activity

C[C@@H](O)[C@@H]1NC(=O)[C@H](CCCCN)NC(=O)[C@@H](Cc2ccc(C(N)=O)cc2)NC(=O)[C@H](Cc2ccc(O)cc2)NC(=O)[C@H](NC(=O)[C@@H](N)Cc2ccc(Cl)cc2)CSSC[C@@H](C(=O)NC(Cc2ccccc2)C(N)=O)NC1=O (stereo partly drawn) [Compound 40, H-Cpa-cyclo[DCys- Tyr-D-(4- carbamoyl)Phe-Lys- Thr-Cys]-DPhe-NH2] (H-[Phe(4-Cl)][dC]Y[dPhe(4-CONH2)]KTC[ξF]-NH2; disulfide 2-7)
antagonistic activity with respect to SSTR2: exhibited antagonistic activity

C[C@@H](O)[C@@H]1NC(=O)[C@H](CCCCN)NC(=O)[C@@H](Cc2ccc(C(N)=O)cc2)NC(=O)[C@H](Cc2ccccc2)NC(=O)[C@H](NC(=O)[C@@H](N)Cc2ccc(Cl)cc2)CSSC[C@@H](C(=O)NC(Cc2ccccc2)C(N)=O)NC1=O (stereo partly drawn) [Compound 41, H-Cpa-cyclo[DCys- Phe-D-(4- carbamoyl)Phe-Lys- Thr-Cys]-DPhe-NH2] (H-[Phe(4-Cl)][dC]F[dPhe(4-CONH2)]KTC[ξF]-NH2; disulfide 2-7)
antagonistic activity with respect to SSTR2: exhibited antagonistic activity

C[C@@H](O)[C@@H]1NC(=O)[C@H](CCCCN)NC(=O)[C@@H](Cc2ccc(C(N)=O)cc2)NC(=O)[C@H](Cc2ccc(O)cc2)NC(=O)[C@H](NC(=O)[C@@H](N)Cc2ccc(Cl)cc2)CSSC[C@@H](C(=O)NC(Cc2ccc(Cl)cc2)C(N)=O)NC1=O (stereo partly drawn) [Compound 42, H-Cpa-cyclo[DCys- Tyr-D-(4- carbamoyl)Phe- Lys-Thr-Cys]- 4-Cl-D-Phe-NH2] (H-[Phe(4-Cl)][dC]Y[dPhe(4-CONH2)]KTC[ξPhe(4-Cl)]-NH2; disulfide 2-7)
antagonistic activity with respect to SSTR2: exhibited antagonistic activity

C[C@@H](O)[C@@H]1NC(=O)[C@H](CCCCN)NC(=O)[C@@H](Cc2ccc(C(N)=O)cc2)NC(=O)[C@H](Cc2ccc(Cl)cc2)NC(=O)[C@H](NC(=O)[C@@H](N)Cc2ccc(Cl)cc2)CSSC[C@@H](C(=O)NC(Cc2ccc(Cl)cc2)C(N)=O)NC1=O (stereo partly drawn) [Compound 43, H-Cpa-cyclo[DCys- 4-Cl-Phe-D-(4- carbamoyl)Phe-Lys- Thr-Cys]-4-Cl-D- Phe-NH2] (H-[Phe(4-Cl)][dC][Phe(4-Cl)][dPhe(4-CONH2)]KTC[ξPhe(4-Cl)]-NH2; disulfide 2-7)
antagonistic activity with respect to SSTR2: exhibited antagonistic activity

COc1ccc(CC(NC(=O)[C@@H]2CSSC[C@@H](NC(=O)[C@@H](N)Cc3ccc(Cl)cc3)C(=O)N[C@@H](Cc3ccc(O)cc3)C(=O)N[C@H](Cc3ccc(C(N)=O)cc3)C(=O)N[C@@H](CCCCN)C(=O)N[C@@H]([C@@H](C)O)C(=O)N2)C(N)=O)cc1 (stereo partly drawn) [Compound 44, H-Cpa-cyclo[DCys- Tyr-D-(4- carbamoyl)Phe-Lys- Thr-Cys]-4-OMe-D- Phe-NH2] (H-[Phe(4-Cl)][dC]Y[dPhe(4-CONH2)]KTC[ξY](Me)-NH2; disulfide 2-7)
antagonistic activity with respect to SSTR2: exhibited antagonistic activity

COc1ccc(CC(NC(=O)[C@@H]2CSSC[C@@H](NC(=O)[C@@H](N)Cc3ccc(Cl)cc3)C(=O)N[C@@H](Cc3ccc(OC)cc3)C(=O)N[C@H](Cc3ccc(C(N)=O)cc3)C(=O)N[C@@H](CCCCN)C(=O)N[C@@H]([C@@H](C)O)C(=O)N2)C(N)=O)cc1 (stereo partly drawn) [Compound 45, H-Cpa-cyclo[DCys- 4-OMe-Phe-D-(4- carbamoyl)Phe-Lys- Thr-Cys]-4-OMe-D- Phe-NH2] (H-[Phe(4-Cl)][dC]Y(Me)[dPhe(4-CONH2)]KTC[ξY](Me)-NH2; disulfide 2-7)
antagonistic activity with respect to SSTR2: exhibited antagonistic activity
